Data reported in PubChem BioAssay AID493014 (National Center for Advancing Translational Sciences (NCATS), 2011).
Out of some 340,000 compounds screened, about 170 (0.05%) were called active. The inconclusive results got no clear call from the source; some entries with a clear call stand among them for comparison. The call rests on the fitted dose curve; in most records, active means well fitted inhibition curve with a large enough effect in the signal ratio, with a control signal flat (not every such curve was filed as active); inconclusive means small, poorly fitted or top-dose-only effect, or effect the other way, or a change in a side signal; inactive means flat fitted curve, though single readings scatter; the % refers to the signal ratio. Potencies of inconclusive entries are doubtful fits and often do not repeat.
Potency means the concentration at half of the fitted maximal effect.

Experiment: qHTS Assay to Find Inhibitors of Chronic Active B-Cell Receptor Signaling;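 on activity change, negative = inhibition: plate controls were basal doxycycline-induced cells for no effect and cells given 10 µM MG132 for full effect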
Details: ABC-DLBCL IkBa-CBG/CBR reporter, luminescence ratio (green luciferase fused to IkBa over red control in TMD8 lymphoma cells), 4 h; activity change, negative = inhibition: at 46.1 µM (top of the series)
How it was run: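 Concentration-response series (up to 46 uM) were applied to TMD8 dual-reporter cells for 4 h at 37C with doxycycline. Green/red ratio, after filter-overlap correction, defined %Activity; red signal alone was normalised to basal cells and zero luminescence.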
In the case of `COc1ccc2c(CC(=O)OCC(=O)Nc3cccc(C)c3)coc2c1`, the “activity change, negative = inhibition” value is reported as inactive: -0.611%.
For `Cc1ccc(COc2ccc3c(c2)OCO3)cc1`, the activity change, negative = inhibition was inconclusive: 7.29%.
For `CCOC(=O)C(=CNc1ncccc1C)C(=O)OCC`, the activity change, negative = inhibition was inconclusive: -18.6%.
With `Cc1ccc(O)c(CNc2ccccn2)c1` the activity change, negative = inhibition was inconclusive: 0.0725%.
In the case of `COc1ccc(-c2csc(NC(=O)C3CCN(C(=O)c4ccc(F)cc4)CC3)n2)cc1OC`, the activity change, negative = inhibition is reported as inconclusive: -17.6%.
With `COc1ccc(S(=O)(=O)N(C)C)cc1NC(=O)CSc1nnc(-c2cccnc2)o1` the activity change, negative = inhibition was inconclusive: 4.04%.
In the case of `COc1ccc(-n2c(=O)c(CCC(=O)N3CCN(c4ccccc4O)CC3)nc3ccccc32)cc1`, the “activity change, negative = inhibition” value is reported as inactive: -14.5%.
With `CCCOc1ccc(N2C(=O)CC(NCC#N)C2=O)cc1` (stereo unspecified) the activity change, negative = inhibition was inconclusive: 4.99%.
For `CC(=O)c1ccc(NC(=O)CN2c3cccc4cccc(c34)S2(=O)=O)cc1`, the activity change, negative = inhibition was inconclusive: -1.55%.
In the case of `CCOc1ccc(C(=O)Nc2ccc(NC(=O)c3ccco3)c(Cl)c2)cc1Br`, the “activity change, negative = inhibition” value is reported as inactive: -13.8%.
With `Cc1ccc(NC(=S)NCc2ccccc2)c(C)c1` the activity change, negative = inhibition was inconclusive: 0.929%.
With `CN(C(=O)CCc1ccccc1F)C1CCCN(Cc2ccccc2F)C1` (stereo unspecified) the “activity change, negative = inhibition” value was inactive: 0.151%.
For `Cc1ccc(C)c(Cn2nnc3c(=O)[nH]c(C4CCCN(S(=O)(=O)Cc5ccccc5)C4)nc32)c1` (stereo unspecified), the “activity change, negative = inhibition” value was inactive: 1.87%.
With `Cc1cc(/C=C2/SC(=O)N(CC(=O)OC(C)C)C2=O)c(C)n1C` the activity change, negative = inhibition was inconclusive: -0.461%.
In the case of `Cc1nn(-c2ccccc2)c(Cl)c1/C=N/O`, the activity change, negative = inhibition is reported as inconclusive: 1.16%.
In the case of `CCN1CC=C2C(C#N)=C(N)C(C#N)(C#N)[C@H](c3ccoc3)[C@H]2C1`, the activity change, negative = inhibition is reported as inconclusive: 8.25%.
In the case of `COc1ccccc1C(=O)NNC(=O)C(=O)NC1CCCCC1`, the Potency is reported as inconclusive: 35.5 µM [falling, single point].
For `CC1=C(C(=O)OC(C)(C)C)C(c2ccc3ccccc3c2)NC(=O)N1C` (stereo unspecified), the activity change, negative = inhibition was inconclusive: -19.2%.
In the case of `CC1CCC(NC(=O)C2CCC(CNS(=O)(=O)c3cccc4nsnc34)CC2)CC1` (stereo unspecified), the “activity change, negative = inhibition” value is reported as inactive: -6.22%.
With `S=C(NNc1nc(Nc2ccccc2)nc(N2CCCCC2)n1)NC1CCCCC1` the activity change, negative = inhibition was inconclusive: -0.776%.
With `CSc1nsc2nc(=O)c(/C=C3\C=Nc4ccccc43)c(N)n12` the activity change, negative = inhibition was inconclusive: -2.48%.
With `CC(=O)n1nc(-c2cccc(C)c2)nc1SCC(=O)Nc1ccccc1` the Potency was inconclusive: 18.4 µM [falling, single point].
For `COc1ccccc1NC(=O)N1CCN(c2ccc(F)cc2)CC1`, the Potency was inconclusive: 20.6 µM [falling, partial curve, poor fit].
With `CCC1=C(OC(=O)N(CC)CC)N2C(=O)OC(=NCC(=O)OC)[C@]2(Cc2ccccc2)[C@H]2C1=CC[C@H]1C(=O)N(C)C(=O)[C@H]12` the “activity change, negative = inhibition” value was inactive: 8.83%.
With `O=S1(=O)CCOCCCN1Cc1ccccc1F` the activity change, negative = inhibition was inconclusive: -11.5%.
With `O=C1CC(c2ccc(O)cc2)Oc2ccccc21` (stereo unspecified) the activity change, negative = inhibition was inconclusive: 11.5%.
With `O=C(NCCCCc1ccccc1)c1cc([N+](=O)[O-])cc([N+](=O)[O-])c1` the activity change, negative = inhibition was inconclusive: 10.8%.
For `COc1ccc(OC)c(NC(=O)c2ccccc2N(Cc2ccccc2)S(C)(=O)=O)c1`, the activity change, negative = inhibition was inconclusive: -0.37%.
With `Cc1ccc2c(c1C)NC(=O)C21N2CCCC2C(C(=O)c2ccc3ccccc3c2)C12C(=O)Nc1ccccc12` (stereo unspecified) the “activity change, negative = inhibition” value was inactive: 3.29%.
With `CC1(C)CC(CCC(=O)NC(=S)Nc2ccccc2Cl)C(=O)O1` (stereo unspecified) the Potency was inconclusive: 35.5 µM [rising, single point].
For `Clc1ccc(-c2cc(C3CCNCC3)[nH]n2)cc1`, the Potency was inconclusive: 35.5 µM [falling, single point].
For `Cc1ccc(-n2c(=O)cc(N3CCN(Cc4ccccc4)CC3)[nH]c2=O)cc1`, the activity change, negative = inhibition was inconclusive: 14.2%.
In the case of `COC(=O)c1ccc(COc2ccc(C(C)(C)C)cc2)o1`, the activity change, negative = inhibition is reported as inconclusive: 2.51%.
In the case of `O=C(c1cc(-c2ccc(Br)cc2)on1)N1CCc2ccccc2C1`, the activity change, negative = inhibition is reported as inconclusive: 6.62%.
With `Cc1ccc(C)c(NC(=O)CSc2nnc(CCCCCNC(=O)OC(C)(C)C)o2)c1` the activity change, negative = inhibition was inconclusive: -6.44%.
For `CCCCSc1nc2sc3c(c2c(=O)[nH]1)CCC3`, the activity change, negative = inhibition was inconclusive: 13.1%.
For `CN(C)c1ccc(/C=N/NC(=O)c2ccc3c(c2)OCO3)cc1`, the Potency was inconclusive: 17.8 µM [falling, partial curve].
For `CC(=O)C1=C(C)N(c2ccccc2)C(=O)C1(NS(=O)(=O)c1ccc(N)cc1)C(F)(F)F` (stereo unspecified), the activity change, negative = inhibition was inconclusive: 0.588%.
In the case of `COc1cc(SC)ccc1C(=O)Nc1cccc(C)n1`, the activity change, negative = inhibition is reported as inconclusive: -3.17%.
For `CCOC(=O)c1cnn(-c2cc(C)nc3c(-c4ccccc4)cnn23)c1N`, the activity change, negative = inhibition was inconclusive: 9.87%.
In the case of `CCCc1cc(=O)[nH]c(SCc2ccc(F)cc2)n1`, the Potency is reported as inconclusive: 31.6 µM [rising, single point].
In the case of `Cc1cccc(NC(=O)N2CCCC2C(=O)Nc2ccccc2)c1` (stereo unspecified), the activity change, negative = inhibition is reported as inconclusive: 7.41%.
In the case of `CCOC(=O)N1CCN(C(=O)COc2ccccc2OC)CC1`, the activity change, negative = inhibition is reported as inconclusive: -1.25%.
In the case of `CCN(CC)C(=O)CN(c1ccc(C)cc1)S(=O)(=O)c1ccc(SC)cc1`, the activity change, negative = inhibition is reported as inconclusive: 2.26%.
For `COc1ccc(C(=O)Nc2ccc(C)cn2)cc1S(=O)(=O)N1CCCc2ccccc21`, the Potency was inconclusive: 1.3 µM [rising, full curve, poor fit].
For `O=C(c1ccccc1)c1c[nH]c(C(=O)C(Cl)(Cl)Cl)c1`, the Potency was inconclusive: 22.4 µM [falling, partial curve].
With `Cc1c(CCOC(=O)c2ccc([N+](=O)[O-])cc2)sc[n+]1CC(=O)c1ccccc1` the Potency was inconclusive: 0.316 µM [rising, full curve, poor fit].
With `C/C(CC(=O)Nc1ccc(C)c(Cl)c1)=N\NC(=O)Cc1cccs1` the activity change, negative = inhibition was inconclusive: -4.66%.
With `COc1cc(C(=O)Nc2ccc3nc(N4CCN(C)CC4)cc(C)c3c2)cc(OC)c1OC` the Potency was inconclusive: 11.2 µM [falling, partial curve, poor fit].
In the case of `CCOc1ccccc1NC(=O)C(=O)/C=C(\O)c1cc(OC)ccc1OC`, the activity change, negative = inhibition is reported as inconclusive: 4.18%.
For `CCN(Cc1ccc(C#CCCO)cc1)CC1CCCN(CCc2cccc(OC)c2)C1` (stereo unspecified), the activity change, negative = inhibition was inconclusive: -5.41%.
